# Data source: PubChem BioAssay AID504791 (Drosophila RNAi Screening Center, 2011)
# Aim: 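Factors in Argonaute-based small RNA production and activity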 (primary screen)
# Cells: Drosophila S2-derived reporter cells
# Knock-down reagent: long dsRNA against Drosophila genes, about 150-250 ng dsRNA per well (siRNA assay); about 80-120 ng (miRNA assay)
# Time to read-out: about 5 days (siRNA assay); about 4 days (miRNA assay)
# Challenge: copper sulfate induction of reporters: 25 µM (siRNA assay); 200 mM stated (miRNA assay), 1-2 days before reading
# Measurement: 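Per-well ratio of Renilla over firefly light, expressed relative to that plate's average ratio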
# Active means: 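a well was a first-pass pick when its plate-scaled ratio rose above 1.5 (siRNA assay) or 1.6 (miRNA assay), or dropped below 0.6; a gene counted only if two separate dsRNAs agreed on retest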
# The deposit covers about 23,000 reagents; shown is an unselected part of those that have a named target and a result. Over the whole deposit, 199 (0.86%) were called active. 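Plate-scaled ratios behind the calls are not deposited; printed light signals are raw; many rows marked increased or decreased are still called inactive.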 Entries without a mark were called inactive. Names joined by + are all predicted targets of the reagent. The record does not give: the direction of the score.
The first 3 entries, to show the layout:
Gene,PubChem SID,stable siRNA reporter change,"stable assay Renilla, run 1 (luminescence)","stable assay firefly, run 1 (luminescence)"
CG13700,SID104189841,,6647,3.07e5
CG42709,SID104190069,,8354,4.74e5
CG9084,SID104187127,,6399,4.96e5

The list itself, repeating the preview:
Gene,PubChem SID,stable siRNA reporter change,"stable assay Renilla, run 1 (luminescence)","stable assay firefly, run 1 (luminescence)"
CG13700,SID104189841,,6647,3.07e5
CG42709,SID104190069,,8354,4.74e5
CG9084,SID104187127,,6399,4.96e5
EndoG,SID104187084,,6082,4.82e5
EndoG,SID104202118,,3363,4.08e5
CG11162,SID104199183,,5564,5.74e5
CG11162,SID104201978,,4348,3.28e5
Urod,SID104187361,,7558,4.77e5
CG5478,SID104195606,,7559,4.71e5
Elp2,SID104185887,,10354,6.25e5
CG15253,SID104181663,,6787,4.67e5
CG1024,SID104192288,,7094,3.71e5
gnu,SID104190289,,9282,3.37e5
CG31974,SID104180314,,7634,3.19e5
Dgk,SID104184856,,4950,4.22e5
Dgk,SID104184857,,5343,4.47e5
Dgk,SID104185963,,6955,3.66e5
Dgk,SID104186574,,4351,3.05e5
Dgk,SID104201763,reporter ratio raised past the hit cutoff,9481,3.32e5
CG30265,SID104201299,,9403,5.48e5
CG15673,SID104184055,,7843,5.20e5
CG30496,SID104186597,,8946,4.53e5
TTLL1A,SID104199913,,7910,3.38e5
CG32945,SID104191806,,5384,3.65e5
Picot,SID104187300,reporter ratio lowered past the hit cutoff,5803,3.89e5
nop5,SID104183374,,6622,4.77e5
Cyp313a2,SID104196417,,6379,3.38e5
Eno,SID104180542,,6682,4.37e5
Ogg1,SID104197530,,7496,4.52e5
ppk29,SID104183997,,6379,5.88e5
CSN7,SID104186599,reporter ratio lowered past the hit cutoff (active),4906,4.69e5
CSN7,SID104186600,reporter ratio lowered past the hit cutoff (active),5019,5.56e5
twi,SID104184512,,4592,2.31e5
twi,SID104202542,,3799,3.05e5
CG13038,SID104189711,,7390,4.42e5
NfI,SID104196950,,6268,3.94e5
Snx16,SID104186776,,6479,3.03e5
CG42445,SID104190650,,7402,3.71e5
bap,SID104196700,,6175,5.38e5
PIG-H,SID104194648,,7372,4.74e5
CG11241,SID104191433,,4363,3.39e5
CG11241,SID104201712,,8698,5.34e5
stil,SID104187491,,8087,5.02e5
UGP + PGRP-LF,SID104190210,,6243,4.23e5
form3,SID104189987,,5924,3.75e5
form3,SID104190089,,8218,4.21e5
form3,SID104190816,,5892,3.88e5
Cht9,SID104183871,,1.79e5,4.01e5
prc,SID104191177,,6579,3.28e5
CG10211,SID104181819,,7937,5.71e5
CNT1 + CG13742,SID104186205,,5711,2.85e5
CG13319,SID104186148,,3196,3.38e5
CG32811,SID104202052,,3619,3.09e5
Pdf,SID104196578,,3964,3.98e5
Dr,SID104196794,,4231,3.66e5
Dr,SID104202093,,4491,4.66e5
CG14492,SID104186255,,5127,3.63e5
